{"source": "PubChem BioAssay AID1259405 (NCATS, 2018)", "assay": "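Silenced genes that increase secreted GFP made by CHO cells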 (primary screen)", "cell system": "Chinese hamster CHO-K1 ovary cells with stable secreted eGFP expression", "reagents": "single siRNA against mouse genes, 0.8 pmol siRNA per well (2 µl of 400 nM stock)", "time to read-out": "3 days", "measurement": "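Percent of the per-plate non-targeting control median for intracellular GFP per well by laser scanning cytometry and for cell viability by ATP luminescence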", "scale": "GFP, % of control: higher = more GFP per well, higher productivity; viability (ATP), % of control: higher = more viable cells (more ATP)", "rule for the call": "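a knock-down is called active if GFP reaches 120% or more of non-targeting control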", "note": "The deposit covers about 50,000 reagents; this is a part drawn at random. Of all reagents, about 4,000 (8%) were called active. 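Mouse siRNA library applied to hamster cells; one well for each siRNA.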 Entries without a mark were called inactive. Reagents against one gene are numbered here."}
{"gene":"Ywhab","reagent":1,"GFP, % of control":53.2,"viability (ATP), % of control":60.3}
{"gene":"Ywhab","reagent":2,"GFP, % of control":41.2,"viability (ATP), % of control":40.3}
{"gene":"Ywhab","reagent":3,"GFP, % of control":43.8,"viability (ATP), % of control":63.9}
{"gene":"Gemin8 (gem nuclear organelle associated protein 8)","reagent":1,"GFP, % of control":51.8,"viability (ATP), % of control":35}
{"gene":"Gemin8 (gem nuclear organelle associated protein 8)","reagent":2,"GFP, % of control":69.5,"viability (ATP), % of control":69.6}
{"gene":"Gemin8 (gem nuclear organelle associated protein 8)","reagent":3,"GFP, % of control":117,"viability (ATP), % of control":146}
{"gene":"Sec24b (SEC24 homolog B, COPII coat complex component)","reagent":1,"GFP, % of control":59.9,"viability (ATP), % of control":69.2}
{"gene":"Sec24b (SEC24 homolog B, COPII coat complex component)","reagent":2,"GFP, % of control":61.2,"viability (ATP), % of control":59.1}
{"gene":"Ubl3 (ubiquitin-like 3)","reagent":1,"GFP, % of control":107,"viability (ATP), % of control":98.3}
{"gene":"Ubl3 (ubiquitin-like 3)","reagent":2,"GFP, % of control":57.5,"viability (ATP), % of control":71.7}
{"gene":"Ubl3 (ubiquitin-like 3)","reagent":3,"GFP, % of control":95.1,"viability (ATP), % of control":101}
{"gene":"Ckm (creatine kinase, muscle)","reagent":1,"GFP, % of control":72,"viability (ATP), % of control":67.1}
{"gene":"Maml1 (mastermind like transcriptional coactivator 1)","reagent":1,"GFP, % of control":59.6,"viability (ATP), % of control":40.5}
{"gene":"Maml1 (mastermind like transcriptional coactivator 1)","reagent":2,"GFP, % of control":42.8,"viability (ATP), % of control":42.8}
{"gene":"Maml1 (mastermind like transcriptional coactivator 1)","reagent":3,"GFP, % of control":72.8,"viability (ATP), % of control":54.1}
{"gene":"Col6a3 (collagen, type VI, alpha 3)","reagent":1,"GFP, % of control":40.1,"viability (ATP), % of control":77}
{"gene":"Col6a3 (collagen, type VI, alpha 3)","reagent":2,"GFP, % of control":85.9,"viability (ATP), % of control":92.1}

2 entries from above, limited to “GFP, % of control”.
Ubl3 (ubiquitin-like 3) #2	57.5
Ubl3 (ubiquitin-like 3) #3	95.1
